No constants are given. Whether binding was seen depends on the method and setting. Binding seen in cells or lysates may run through a third protein. For part of these data: Binding calls can cover weak binding; strength is not graded here. For part of these data: Tags and fused reporters may be left off the sequences shown.

Results on two molecules are retold here after US20140079713A1.

In one experiment the target is Disp1-YFP. In words: co-immunoprecipitation (anti-GFP IP), COS7 lysates.
In a further experiment the target is Smo-GFP. Kind of experiment: co-immunoprecipitation (anti-GFP IP), COS7 lysates.
A further experiment addresses PTCH1-HA. In words: co-immunoprecipitation (anti-GFP IP, anti-HA blot), COS7 lysates.

B1: GAS1 (receptor, mouse, UniProt Q01721 39-315, looked up)
chain: LAHGRRLICWQALLQCQGEPDCSYAYSQYAEACAPVLAQRGGADAPGPAGAFPASAASSPRWRCPSHCISALIQLNHTRRGPALEDCDCAQDEHCRSTKRAIEPCLPRTSSVGPGAGAGSVMGCTEARRRCDRDSRCNLALSRYLAYCGKLFNGLRCTDECRAVIEDMLAVPKAALLNDCVCDGLERPICESVKENMARLCFGPDASNGPGSSGSDGGLDDYYDEEYDDEQRAGAAGGEQPLDDDDGLARPGGGAAAAGGRGDLPHGPGRRSSSSGS
For the molecule B1, the binding entry in the experiment with Disp1-YFP and with Smo-GFP was “no binding” each time.

B2: BOC-GFP (receptor, mouse, UniProt Q6AZB0 26-1110, looked up, not shown: large carriers)
chain: DLNEVPQVTVQPMSTVQKLGGTVILGCVVEPPWMNVTWRFNGKELNGSDDALGVFITRGTLVIAALNNHTVGRYQCVARMPAGAVASVPATVTLANLQDFKLDVQHVIEVDEGNTAVIACHLPESHPKAQVRYSVKQEWLEASRDNYLIMPSGNLQIVNASQEDEGMYKCAAYNPVTQEVKTSGSGDRLRVRRSTAEAARIIYPLEAQTVIVTKGQSLILECVASGIPPPRVTWAKDGSSIAAYNKTRFLLSNLLIDTTSEEDSGTYRCMASNGVGDPGAAVILYNVQVFEPPEVTVELSQLVIPWGQSAKLTCEVRGNPPPSVLWLRNAVPLTSSQRLRLSRRALRVVSVGPEDEGVYQCMAENAVGSAHAVVQLRTARPDTTLRPGRDTKPIAATPPMPPSRPSRPDQMLREQPGLVKPPTSSVQPTSLKCPGEEQVAPAEAPIILSSPRTSKTDSYELVWRPRHEGSSRTPILYYVVKHRKVTNSSDDWTISGIPANQHRLTLTRLDPGSLYEVEMAAYNCAGEGQTAMVTFRTGRRPKPEIVASKEQQIQRDDPGASLQSSSQPDHGRLSPPEAPDRPTISTASETSVYVTWIPRGNGGFPIQSFRVEYKKLKKVGDWILATSAIPPSRLSVEITGLEKGISYKFRVRALNMLGESEPSAPSRPYVVSGYSGRVYERPVAGPYITFTDAVNETTIMLKWMYIPASNNNTPIHGFYIYYRPTDSDNDSDYKKDMVEGDRYWHSISHLQPETSYDIKMQCFNEGGESEFSNVMICETKARKFSGQPGRPPPLTLAPPQPPPLETMERPVGTGAMVARASDLPYLIVGVVLGSIVLIIVTFIPFCLWRAWSKQKHTTDLGFPRSALLSSSCQYTMVPLEGLPGHQANGQPYLGGVSGRACVSRVHGSRGCPAATVGCPGRKPQQHCPGELAQQREDTNSQLRQPIVSNGYDLQNQQVARGPQCASGVGAFLYTLPDDSTHQLLQPQDCCHLQKQPVTTCQTAVRRTSESPGLESSWDPPYHSGPRCCLGLVPVEEVDSSDSCQVGGGDWSSQHPSGTYTGQERGMRFSPSPSVHVSFETPPPTI
B2: the binding result with PTCH1-HA was “binds”.
